# Measured values published in PMC7819943, “Rice protein-binding microarrays: a tool to detect cis-acting elements near promoter regions in rice”.
# The chains behind the UniProt entries cited, without tags or fusion partners.
# UniProt Q0JBA9, entry or part of it: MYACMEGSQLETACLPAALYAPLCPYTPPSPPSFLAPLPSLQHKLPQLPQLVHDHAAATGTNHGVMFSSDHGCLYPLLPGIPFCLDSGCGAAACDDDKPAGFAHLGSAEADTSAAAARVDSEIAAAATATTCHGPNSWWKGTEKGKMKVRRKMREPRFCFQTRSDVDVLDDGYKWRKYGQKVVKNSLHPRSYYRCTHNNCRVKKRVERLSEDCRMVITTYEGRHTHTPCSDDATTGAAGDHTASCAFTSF
# The list shows a part of the results.
# Molecular target: OsWRKY34 (Oryza sativa, UniProt Q0JBA9 1-250)
# Experiment: protein-binding microarray (RPBM); PBS, 2% BSA, 51.3 ng/ul salmon testes DNA, 50 uM zinc acetate, 200 nM TF, 25 C, 1 h; high values mean tight binding
# Conditions: protein: recombinant; tags: N-terminal polyhistidine and DsRed monomer fusion (pET32a); label: CyDye5-dUTP incorporated in the synthesized complementary strand; 3' TTTTT single-stranded linker to array surface; dsDNA, one strand shown
# Method in brief: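 Transcription factors, each fused N-terminally to a polyhistidine tag and DsRed, were expressed in E. coli BL21-CodonPlus and purified on Ni–NTA. A custom Agilent array was made double-stranded by primer extension with Cy5-dUTP and blocked with 2% BSA. It was incubated with 200 nM protein in PBS, 2% BSA, salmon testes DNA and 50 µM zinc acetate at 25 °C for 1 h, then washed. The binding signal is per-feature fluorescence intensity (arbitrary units) read on an Axon 4000B scanner.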
row,Sequence,binding signal
1,CTCGTCTCTCGGTCTCGTTCCCGTACACGTCGCGATGTGACGGAGTCACCTAGTGCAG,8400 fluorescence intensity (a.u.)
2,ATTTCCTCAACAATCTATTAGGTTTTGTGCTCTCACTAATCGGAGTCACCTAGTGCAG,8330 fluorescence intensity (a.u.)
3,CCATCCATGTTACTATTCTCTACCACGGTACACTCGCGAGCGGAGTCACCTAGTGCAG,9440 fluorescence intensity (a.u.)
4,CATTTTTTTAGCTTGTTCTTCCTTGTGTCACAAACATTTCCGGAGTCACCTAGTGCAG,11300 fluorescence intensity (a.u.)
5,ACCCAAGCTCTCTGGGATGTCACATGTATTATACCCCTTGCGGAGTCACCTAGTGCAG,10100 fluorescence intensity (a.u.)
6,GCTGCCACTATCAACCACCACAGTATGCCACTTCCACTGTCGGAGTCACCTAGTGCAG,9010 fluorescence intensity (a.u.)
7,AGTTTTCCTCTGTTTGTTCTCTTCTCACGCGTTCTACGCTCGGAGTCACCTAGTGCAG,13100 fluorescence intensity (a.u.)
8,TCTTTCCTATTTCGGTAATTATTGTTTTGCATTTACTATTCGGAGTCACCTAGTGCAG,8860 fluorescence intensity (a.u.)
9,CCTCCGTTTTCGCCACTAAAACCAACTTTGCCCTCTCTCTCGGAGTCACCTAGTGCAG,9270 fluorescence intensity (a.u.)
10,CTCTCCAGTCTCCAGTGCTCTCGAGTCTCGACGCTCGCCTCGGAGTCACCTAGTGCAG,8840 fluorescence intensity (a.u.)
11,CAATACCTTGCAATGAAGTACCCTTTTAGAATATGGTTTTCGGAGTCACCTAGTGCAG,8410 fluorescence intensity (a.u.)
12,TTGCTCCGTTCAACGCCTCTTCCCCAGCTTCACAGTACTCCGGAGTCACCTAGTGCAG,11200 fluorescence intensity (a.u.)
13,TTCTGTTTGTGTCACCTTCTATCATATGTTCTATGAAATTCGGAGTCACCTAGTGCAG,8600 fluorescence intensity (a.u.)
14,GGTAGATTGGTACATAATGGCATTTCAACGTGGTATTCTACGGAGTCACCTAGTGCAG,9870 fluorescence intensity (a.u.)
15,GGGAGCTGCAGATCCCCTGCCTACTGCGCGTCCACGCTTCCGGAGTCACCTAGTGCAG,8120 fluorescence intensity (a.u.)
16,TTTTTAGACTTTGATACGGTCTTCGAGATGCTATTTTGACCGGAGTCACCTAGTGCAG,9320 fluorescence intensity (a.u.)
17,TCGGAGGGGCAAAGCGATTTCATTGTCATCATCGATATTTCGGAGTCACCTAGTGCAG,9010 fluorescence intensity (a.u.)
18,TCCTCACTTACTATATACATCCTCCTTTCTAAATTGATCACGGAGTCACCTAGTGCAG,8530 fluorescence intensity (a.u.)
19,GATGGACATTGTTTGCCATCACCGTCAACGACCGTTGACTCGGAGTCACCTAGTGCAG,12900 fluorescence intensity (a.u.)
20,CTCTTCTCTCATCCAATCGCGAGCCACCAAACCCTAATCCCGGAGTCACCTAGTGCAG,8330 fluorescence intensity (a.u.)
21,GAAGTTACTATATCTCTGTCTATTATTTTCTGATCTGTGCCGGAGTCACCTAGTGCAG,8870 fluorescence intensity (a.u.)

row,Sequence,binding signal
1,CACCACAGTACCACACTTGCAATCCTCTCTCTCCATCTCCCGGAGTCACCTAGTGCAG,9560 fluorescence intensity (a.u.)
2,AATAACTTCACCATCTGCCTCTCAGCTTCTTTCCTTGATTCGGAGTCACCTAGTGCAG,8500 fluorescence intensity (a.u.)
3,ATCACATCAACCTGTCATATACACACAACTTTTCAGTCATCGGAGTCACCTAGTGCAG,8530 fluorescence intensity (a.u.)
4,AAATTGGTGGGTGTTAGTTTCCCTCTACTGACTGAAATCGCGGAGTCACCTAGTGCAG,9880 fluorescence intensity (a.u.)
5,AATTTGCTGTCTGTGTACATAGCTGTTGTCTCTTATGTGTCGGAGTCACCTAGTGCAG,9480 fluorescence intensity (a.u.)
6,AAATATGGTGCTTGTTTATTTGTTCTTGGGATGATCTTGCCGGAGTCACCTAGTGCAG,10000 fluorescence intensity (a.u.)
7,TCTTGATTGGTTGTTTTGGTTTGTTTCTTATTTATGTTTGCGGAGTCACCTAGTGCAG,8920 fluorescence intensity (a.u.)
8,GGTATGGTGTCGGTTTTAGCCGGGGTCGTCGAGTCGTGCACGGAGTCACCTAGTGCAG,12000 fluorescence intensity (a.u.)
9,AATCTGCGGCGCGAGGCGGAGGTGGTGGTGGTGGTGGTGGCGGAGTCACCTAGTGCAG,12000 fluorescence intensity (a.u.)
10,TCCAATCAAACGGCCATTCATGTGTTTTTCCTGTGTTTTGCGGAGTCACCTAGTGCAG,9430 fluorescence intensity (a.u.)
11,GTAGTAGTAGTTGTTAGCTGGAGTGGTAGTGGTACACGATCGGAGTCACCTAGTGCAG,9040 fluorescence intensity (a.u.)
12,AGGTACAGAAGGGTGGTGTTTTTTTAGGAAATAAAAGTATCGGAGTCACCTAGTGCAG,8830 fluorescence intensity (a.u.)
13,ACACCTGTTTTCCCCATCAGCTTTTCTTCTTTTTTCATATCGGAGTCACCTAGTGCAG,10200 fluorescence intensity (a.u.)
14,TCTTTTTGTGTACTTAACTTGTGTCAATCTGTCTATATAGCGGAGTCACCTAGTGCAG,9660 fluorescence intensity (a.u.)
15,ACTTTAACATGCATCTAAACACCAACCAGTACTTTTGCAACGGAGTCACCTAGTGCAG,8350 fluorescence intensity (a.u.)
16,CACATTTACTCCTCGCTCATCACCTCCCCAACGACCCAACCGGAGTCACCTAGTGCAG,9160 fluorescence intensity (a.u.)
17,GCTATTATCAACTTTGTCCTTTTACAAAACGTCAAATTTTCGGAGTCACCTAGTGCAG,10200 fluorescence intensity (a.u.)
18,CGCTGCCTCGCTCCGCTGCCCATCTCCTGTCATGCTGCTGCGGAGTCACCTAGTGCAG,8280 fluorescence intensity (a.u.)
19,CCGCCACGTTGCCACTGTTGTCCCCGCGTCACCGGCCACCCGGAGTCACCTAGTGCAG,11700 fluorescence intensity (a.u.)
20,GCACCGCGCTCCTTCTCTCCTGCCTCGCCCTGGCCAGCTTCGGAGTCACCTAGTGCAG,8040 fluorescence intensity (a.u.)
21,AAAACTACTCCATTGACTGCTAAGCCCTTCTTTGTTTTTTCGGAGTCACCTAGTGCAG,10800 fluorescence intensity (a.u.)

row,Sequence,binding signal
1,GCGGTTTCGTCCGACGTGGCGTCATTGACCCGGTTGACGACGGAGTCACCTAGTGCAG,9430 fluorescence intensity (a.u.)
2,AACATTTACTCTCTTCTCTTGTTTCGGTTTGAATGAGTTTCGGAGTCACCTAGTGCAG,9690 fluorescence intensity (a.u.)
3,CAGCGTAGCCGGTTGGCGTGGGGTCGGGGCGTCGGCGTGACGGAGTCACCTAGTGCAG,12800 fluorescence intensity (a.u.)
4,CATCGCTCTCTTCCACTGGTTCGCTCTCTCCGTCAAGCCGCGGAGTCACCTAGTGCAG,8920 fluorescence intensity (a.u.)
5,TCCTCTAGTCAATGGTCAACTGTACGCGCGCGTTCATCTCCGGAGTCACCTAGTGCAG,10200 fluorescence intensity (a.u.)
6,GCTTATCATGGTCTGGTTAGTGGTTGATTGCTCATAGTTCCGGAGTCACCTAGTGCAG,13500 fluorescence intensity (a.u.)
7,ATTGTTTGGTTGTTCATTATAAAATTTAAGCAATCTGAAGCGGAGTCACCTAGTGCAG,8150 fluorescence intensity (a.u.)
8,TCGTTCCTTTTGTCGAATCTGGGAGACGGTGGCGGCGGGGCGGAGTCACCTAGTGCAG,16000 fluorescence intensity (a.u.)
9,CTTCGTTCGTTGGATTCGCTCTCGCGCGCCGCCGCCGCCGCGGAGTCACCTAGTGCAG,11200 fluorescence intensity (a.u.)
10,GCTTCTCTTGTTTGTAGCAGTAGGCTGCTACGCGAGCCAACGGAGTCACCTAGTGCAG,8070 fluorescence intensity (a.u.)
11,CTATACACTGTCATTCTTCGCTGCACAATCATGCCCATGGCGGAGTCACCTAGTGCAG,10700 fluorescence intensity (a.u.)
12,CTCACACAAACCTGCCGACCTGCCACCATCCAAGATCTTCCGGAGTCACCTAGTGCAG,9880 fluorescence intensity (a.u.)
13,CGATGTAATGCCGGGGTGGTTGTTTGGTGCAGCAGAAGGACGGAGTCACCTAGTGCAG,10500 fluorescence intensity (a.u.)
14,GGGCAACATCAGTGTCATCATTCCTCATGAGCACCTCAGCCGGAGTCACCTAGTGCAG,8850 fluorescence intensity (a.u.)
15,ATCATACTTTCTGCGTTTTAAAATATCGTTACCTAAATTTCGGAGTCACCTAGTGCAG,9100 fluorescence intensity (a.u.)
16,AAGGGCGGGGTGTTTTGGCTTCTCCAGCACACTTCCCTCCCGGAGTCACCTAGTGCAG,9300 fluorescence intensity (a.u.)
17,CCCTTCGCGGTTGGGCTCCGCCTCCGCCATCGTCGCCGACCGGAGTCACCTAGTGCAG,8080 fluorescence intensity (a.u.)
18,TAGTAGTATATTGTGTGCTGAGTTTTAGGTGATCTTGGTACGGAGTCACCTAGTGCAG,10100 fluorescence intensity (a.u.)
19,ATATTTGACGCCGTTGACTTTTTTAAACATATTTAACTGTCGGAGTCACCTAGTGCAG,14600 fluorescence intensity (a.u.)
20,GGTCGGTGTGCTAACTTCTTAGTTTATTATTCCCTTTTGCCGGAGTCACCTAGTGCAG,11000 fluorescence intensity (a.u.)
21,TTGCGCTTTTGCTTGCGGCCAGAACACAAGCATCTTCTTTCGGAGTCACCTAGTGCAG,8280 fluorescence intensity (a.u.)

# A run of entries from the list above, for reference:
row,Sequence,binding signal
7,ATTGTTTGGTTGTTCATTATAAAATTTAAGCAATCTGAAGCGGAGTCACCTAGTGCAG,8150 fluorescence intensity (a.u.)
8,TCGTTCCTTTTGTCGAATCTGGGAGACGGTGGCGGCGGGGCGGAGTCACCTAGTGCAG,16000 fluorescence intensity (a.u.)
9,CTTCGTTCGTTGGATTCGCTCTCGCGCGCCGCCGCCGCCGCGGAGTCACCTAGTGCAG,11200 fluorescence intensity (a.u.)
10,GCTTCTCTTGTTTGTAGCAGTAGGCTGCTACGCGAGCCAACGGAGTCACCTAGTGCAG,8070 fluorescence intensity (a.u.)

# The results go on.

row,Sequence,binding signal
1,CCTAGTCGGCTTCGCCTCCGCTTCCTCGTCTCGTCTCCCTCGGAGTCACCTAGTGCAG,8160 fluorescence intensity (a.u.)
2,ACTCTCTCCGTTTCAACTTATAAGATGTTTTGACTTTGGTCGGAGTCACCTAGTGCAG,10100 fluorescence intensity (a.u.)
3,ACACGATTAACTACGTACGATTTATTATACATCTTAGTTTCGGAGTCACCTAGTGCAG,8500 fluorescence intensity (a.u.)
4,ATTCTGCCCGCCTATTTTTTTCATAACTATTTTAATTGACCGGAGTCACCTAGTGCAG,9090 fluorescence intensity (a.u.)
5,CGGCCTCTCTGTCGCCGTCCGTCTCTGTCTTGATCTCTCACGGAGTCACCTAGTGCAG,8850 fluorescence intensity (a.u.)
6,ATCACATTTACCACCGGATAACCTCATGTTTTAGATAACTCGGAGTCACCTAGTGCAG,8180 fluorescence intensity (a.u.)
7,ATAAGGGATTTTGAGTTTTTGATTACACTGTTTGACCACTCGGAGTCACCTAGTGCAG,8420 fluorescence intensity (a.u.)
8,AATTAATCATGTGTTAATGGTTTTCATGTTTTCCGTATCACGGAGTCACCTAGTGCAG,9860 fluorescence intensity (a.u.)
9,TCTCTGTCTTTCTTTGCTTCCTCATTACCTTGGTTAATGTCGGAGTCACCTAGTGCAG,8520 fluorescence intensity (a.u.)
10,TTTTATGATTGATTTGGCACCACTGCTACAATAATGCATCCGGAGTCACCTAGTGCAG,8300 fluorescence intensity (a.u.)
11,CTTGTTGGATATCTTGAGCTATTTTTCTCCTGCAAACACCCGGAGTCACCTAGTGCAG,8770 fluorescence intensity (a.u.)
12,GCCTATTCTTTTCGCCACCGCTATCGCCACACATCACGGACGGAGTCACCTAGTGCAG,17500 fluorescence intensity (a.u.)
13,CGGCGACGACCTTCAGCGATGTTTTGTCACTGTCCCCGGCCGGAGTCACCTAGTGCAG,8360 fluorescence intensity (a.u.)
14,GCTTGCAGGGCTTGGTTGTTTCTTCTTCCGTTTTTTTTTACGGAGTCACCTAGTGCAG,13600 fluorescence intensity (a.u.)
15,GGGTGGGGATTTTTTTTTTCGGTGCTTGTTTAATCAAAGCCGGAGTCACCTAGTGCAG,15500 fluorescence intensity (a.u.)
16,GGTTCTTGGCCTCTTGCCTGTTGGTTGGGTTTGAAGGAGGCGGAGTCACCTAGTGCAG,10200 fluorescence intensity (a.u.)
17,TGCGTTTCTCAAATTATACAAGTCATGATGGATATGTCGTCGGAGTCACCTAGTGCAG,8170 fluorescence intensity (a.u.)
18,CAAGCCGTCCACCCACTTCCGCTTCCCCACGTGCCGCTCGCGGAGTCACCTAGTGCAG,8880 fluorescence intensity (a.u.)
19,CTTCTGCTGTTCTTGGTTGCGTTCATGCTTCCTTTTTTTTCGGAGTCACCTAGTGCAG,12600 fluorescence intensity (a.u.)
20,TCTCCTACACCCCACCCAATCCTCACCGTCCACTCCCAACCGGAGTCACCTAGTGCAG,10200 fluorescence intensity (a.u.)
21,CTGCAAACCCATCCGCCTCCGCACCGCATCGCACCTACAACGGAGTCACCTAGTGCAG,9030 fluorescence intensity (a.u.)
